The supplement of paper PMC7666118
Some of the results follow.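 Rule for the calls: active = dose-dependent thermal stabilisation significant by F-test of dose-response against flat model at 10% FDR; inactive = not significant.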

The chains behind the UniProt entries cited, without tags or fusion partners. Where a name states a change or a piece, a line headed by the entry shows the natural chain unless it says otherwise.
UniProt P14317: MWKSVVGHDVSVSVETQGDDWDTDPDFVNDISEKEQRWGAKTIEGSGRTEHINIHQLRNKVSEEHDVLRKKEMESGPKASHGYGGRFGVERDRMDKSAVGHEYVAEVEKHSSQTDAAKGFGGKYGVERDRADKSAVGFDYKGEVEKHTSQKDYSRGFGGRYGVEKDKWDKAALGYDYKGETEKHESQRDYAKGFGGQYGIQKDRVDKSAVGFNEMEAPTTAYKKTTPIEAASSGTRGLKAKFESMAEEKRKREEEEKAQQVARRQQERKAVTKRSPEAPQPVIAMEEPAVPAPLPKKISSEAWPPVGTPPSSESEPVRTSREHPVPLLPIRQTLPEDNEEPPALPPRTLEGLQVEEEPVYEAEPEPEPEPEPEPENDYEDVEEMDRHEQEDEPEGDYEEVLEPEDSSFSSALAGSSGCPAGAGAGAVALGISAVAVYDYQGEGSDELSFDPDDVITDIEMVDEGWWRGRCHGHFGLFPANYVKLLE
UniProt P26583: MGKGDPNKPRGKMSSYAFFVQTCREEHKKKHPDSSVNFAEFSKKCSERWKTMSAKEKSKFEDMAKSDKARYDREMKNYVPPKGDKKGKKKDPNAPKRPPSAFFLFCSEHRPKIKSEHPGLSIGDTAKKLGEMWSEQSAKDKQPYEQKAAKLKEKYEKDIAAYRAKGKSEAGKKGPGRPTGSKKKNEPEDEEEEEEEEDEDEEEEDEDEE
UniProt Q8TDQ7: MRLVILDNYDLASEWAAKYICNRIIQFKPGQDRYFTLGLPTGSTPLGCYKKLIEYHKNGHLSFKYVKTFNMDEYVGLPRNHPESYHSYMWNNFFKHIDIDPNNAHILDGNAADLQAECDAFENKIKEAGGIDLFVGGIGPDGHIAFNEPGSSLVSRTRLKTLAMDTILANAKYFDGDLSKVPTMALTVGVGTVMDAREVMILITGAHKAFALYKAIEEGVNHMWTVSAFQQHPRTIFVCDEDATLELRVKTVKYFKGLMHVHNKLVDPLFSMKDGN
UniProt Q5T7V8: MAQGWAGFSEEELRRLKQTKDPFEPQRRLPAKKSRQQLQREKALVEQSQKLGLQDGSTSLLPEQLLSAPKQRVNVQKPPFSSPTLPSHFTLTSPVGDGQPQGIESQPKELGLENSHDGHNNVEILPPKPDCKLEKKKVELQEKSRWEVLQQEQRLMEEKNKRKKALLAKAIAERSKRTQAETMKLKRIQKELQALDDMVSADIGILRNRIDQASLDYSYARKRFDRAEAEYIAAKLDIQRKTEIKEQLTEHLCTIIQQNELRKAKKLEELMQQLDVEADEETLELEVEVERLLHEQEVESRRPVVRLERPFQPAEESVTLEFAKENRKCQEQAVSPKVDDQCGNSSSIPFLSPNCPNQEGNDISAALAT
UniProt P50747: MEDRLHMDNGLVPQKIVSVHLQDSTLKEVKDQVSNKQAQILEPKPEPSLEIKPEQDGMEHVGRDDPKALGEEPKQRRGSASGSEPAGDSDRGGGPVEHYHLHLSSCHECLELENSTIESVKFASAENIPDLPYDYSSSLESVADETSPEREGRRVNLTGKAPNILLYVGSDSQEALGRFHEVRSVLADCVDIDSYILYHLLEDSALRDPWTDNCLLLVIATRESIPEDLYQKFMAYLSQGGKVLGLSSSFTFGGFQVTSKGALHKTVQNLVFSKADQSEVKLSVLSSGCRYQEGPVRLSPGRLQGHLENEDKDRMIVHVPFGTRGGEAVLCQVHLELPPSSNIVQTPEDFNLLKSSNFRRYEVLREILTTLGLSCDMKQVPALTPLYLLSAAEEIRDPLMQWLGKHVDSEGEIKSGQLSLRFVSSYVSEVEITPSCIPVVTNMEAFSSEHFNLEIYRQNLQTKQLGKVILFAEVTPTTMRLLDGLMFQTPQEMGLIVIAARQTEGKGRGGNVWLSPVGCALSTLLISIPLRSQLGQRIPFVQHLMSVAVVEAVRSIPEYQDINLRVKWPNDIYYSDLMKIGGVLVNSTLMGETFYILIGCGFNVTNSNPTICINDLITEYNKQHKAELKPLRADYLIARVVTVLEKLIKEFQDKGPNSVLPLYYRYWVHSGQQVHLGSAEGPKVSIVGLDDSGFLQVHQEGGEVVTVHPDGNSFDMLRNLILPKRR
UniProt Q8N335: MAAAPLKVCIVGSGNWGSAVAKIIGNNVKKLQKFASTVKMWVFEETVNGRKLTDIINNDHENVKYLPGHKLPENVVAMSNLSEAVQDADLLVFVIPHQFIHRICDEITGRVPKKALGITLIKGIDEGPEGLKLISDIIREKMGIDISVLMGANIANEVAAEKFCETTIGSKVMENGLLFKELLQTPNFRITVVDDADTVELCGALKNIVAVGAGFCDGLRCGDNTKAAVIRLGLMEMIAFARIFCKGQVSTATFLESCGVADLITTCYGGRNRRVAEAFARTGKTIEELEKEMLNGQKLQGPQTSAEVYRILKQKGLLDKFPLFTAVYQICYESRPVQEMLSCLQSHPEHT
UniProt P48637: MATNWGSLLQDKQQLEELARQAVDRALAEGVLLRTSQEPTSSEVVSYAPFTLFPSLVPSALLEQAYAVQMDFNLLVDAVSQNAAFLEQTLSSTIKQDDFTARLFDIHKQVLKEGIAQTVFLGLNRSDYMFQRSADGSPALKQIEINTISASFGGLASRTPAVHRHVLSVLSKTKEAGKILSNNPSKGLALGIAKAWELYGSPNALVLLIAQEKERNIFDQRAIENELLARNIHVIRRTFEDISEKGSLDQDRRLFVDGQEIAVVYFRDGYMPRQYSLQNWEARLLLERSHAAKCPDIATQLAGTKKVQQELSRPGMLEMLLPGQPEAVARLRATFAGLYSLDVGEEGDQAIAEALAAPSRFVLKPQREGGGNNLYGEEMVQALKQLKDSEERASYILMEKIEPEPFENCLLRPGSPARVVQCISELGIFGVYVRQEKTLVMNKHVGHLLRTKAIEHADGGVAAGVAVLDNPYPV
UniProt Q92917: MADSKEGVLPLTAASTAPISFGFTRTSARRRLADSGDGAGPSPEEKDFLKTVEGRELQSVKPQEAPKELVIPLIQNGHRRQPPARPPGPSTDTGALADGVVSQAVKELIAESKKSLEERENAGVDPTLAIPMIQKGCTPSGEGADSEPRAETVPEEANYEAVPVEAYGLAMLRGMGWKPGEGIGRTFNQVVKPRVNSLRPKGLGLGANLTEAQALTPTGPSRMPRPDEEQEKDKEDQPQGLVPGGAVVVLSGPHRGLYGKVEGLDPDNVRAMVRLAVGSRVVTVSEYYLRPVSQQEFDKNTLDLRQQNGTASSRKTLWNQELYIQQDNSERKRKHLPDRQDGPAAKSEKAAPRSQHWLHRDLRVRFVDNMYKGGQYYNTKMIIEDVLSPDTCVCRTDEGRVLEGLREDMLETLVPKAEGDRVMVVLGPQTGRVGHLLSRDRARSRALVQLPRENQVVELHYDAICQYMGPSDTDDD
UniProt P60983, whole entry: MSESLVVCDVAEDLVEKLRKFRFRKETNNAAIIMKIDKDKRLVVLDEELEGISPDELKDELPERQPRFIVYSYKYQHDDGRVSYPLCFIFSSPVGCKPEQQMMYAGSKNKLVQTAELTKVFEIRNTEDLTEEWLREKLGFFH
UniProt O60547: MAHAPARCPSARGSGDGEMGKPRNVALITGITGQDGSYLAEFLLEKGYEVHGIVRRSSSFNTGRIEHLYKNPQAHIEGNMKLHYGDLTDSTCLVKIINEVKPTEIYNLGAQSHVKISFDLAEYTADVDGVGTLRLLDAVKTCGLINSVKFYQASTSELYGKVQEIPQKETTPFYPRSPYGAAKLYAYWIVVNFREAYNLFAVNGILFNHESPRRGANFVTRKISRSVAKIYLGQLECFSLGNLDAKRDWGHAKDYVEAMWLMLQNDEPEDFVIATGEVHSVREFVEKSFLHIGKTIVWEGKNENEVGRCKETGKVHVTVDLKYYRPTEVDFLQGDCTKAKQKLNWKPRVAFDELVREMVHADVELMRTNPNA
UniProt P09211: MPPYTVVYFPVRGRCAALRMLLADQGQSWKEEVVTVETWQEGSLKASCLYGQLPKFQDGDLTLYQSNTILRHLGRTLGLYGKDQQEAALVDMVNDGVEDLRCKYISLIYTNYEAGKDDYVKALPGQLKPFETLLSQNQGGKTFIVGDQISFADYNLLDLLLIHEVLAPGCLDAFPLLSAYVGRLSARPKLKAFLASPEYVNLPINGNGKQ
UniProt Q8WXD5: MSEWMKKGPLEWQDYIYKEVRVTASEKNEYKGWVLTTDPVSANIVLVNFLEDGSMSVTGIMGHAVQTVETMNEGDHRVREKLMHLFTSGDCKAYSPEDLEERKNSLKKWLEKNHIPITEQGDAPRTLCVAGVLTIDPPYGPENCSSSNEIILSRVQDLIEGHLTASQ
UniProt P16403, whole entry: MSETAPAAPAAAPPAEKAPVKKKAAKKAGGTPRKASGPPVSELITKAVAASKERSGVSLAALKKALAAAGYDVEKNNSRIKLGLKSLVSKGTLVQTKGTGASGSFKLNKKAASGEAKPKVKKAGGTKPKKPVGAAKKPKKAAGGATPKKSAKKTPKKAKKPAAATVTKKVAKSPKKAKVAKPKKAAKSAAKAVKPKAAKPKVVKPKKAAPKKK
UniProt O14929: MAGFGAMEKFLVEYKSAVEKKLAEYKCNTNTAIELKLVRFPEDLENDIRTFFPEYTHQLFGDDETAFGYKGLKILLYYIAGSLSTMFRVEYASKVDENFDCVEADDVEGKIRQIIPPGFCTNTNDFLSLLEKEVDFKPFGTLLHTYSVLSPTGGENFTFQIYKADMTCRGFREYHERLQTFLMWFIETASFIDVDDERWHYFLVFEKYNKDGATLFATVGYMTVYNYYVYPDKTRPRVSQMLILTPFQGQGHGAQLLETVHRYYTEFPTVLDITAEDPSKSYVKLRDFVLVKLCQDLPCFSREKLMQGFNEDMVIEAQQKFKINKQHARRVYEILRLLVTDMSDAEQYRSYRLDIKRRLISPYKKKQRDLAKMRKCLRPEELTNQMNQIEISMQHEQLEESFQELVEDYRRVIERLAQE
UniProt Q9UJY5: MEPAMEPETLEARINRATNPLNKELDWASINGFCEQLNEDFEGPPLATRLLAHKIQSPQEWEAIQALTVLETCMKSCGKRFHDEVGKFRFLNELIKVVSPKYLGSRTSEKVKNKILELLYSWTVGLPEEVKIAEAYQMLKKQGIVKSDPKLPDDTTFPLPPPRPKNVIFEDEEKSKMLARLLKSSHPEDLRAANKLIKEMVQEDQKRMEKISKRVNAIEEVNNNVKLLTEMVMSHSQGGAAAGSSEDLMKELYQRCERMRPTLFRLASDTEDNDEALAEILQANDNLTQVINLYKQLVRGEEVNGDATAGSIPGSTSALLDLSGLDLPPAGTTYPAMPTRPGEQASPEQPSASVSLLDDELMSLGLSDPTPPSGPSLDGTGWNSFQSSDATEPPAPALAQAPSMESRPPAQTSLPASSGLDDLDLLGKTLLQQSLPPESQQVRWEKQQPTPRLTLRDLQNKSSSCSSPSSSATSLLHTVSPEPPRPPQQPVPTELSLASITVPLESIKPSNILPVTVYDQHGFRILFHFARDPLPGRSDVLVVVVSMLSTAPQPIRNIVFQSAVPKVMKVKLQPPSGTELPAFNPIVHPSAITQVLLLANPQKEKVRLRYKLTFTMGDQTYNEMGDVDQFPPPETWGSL
UniProt Q9NZD2: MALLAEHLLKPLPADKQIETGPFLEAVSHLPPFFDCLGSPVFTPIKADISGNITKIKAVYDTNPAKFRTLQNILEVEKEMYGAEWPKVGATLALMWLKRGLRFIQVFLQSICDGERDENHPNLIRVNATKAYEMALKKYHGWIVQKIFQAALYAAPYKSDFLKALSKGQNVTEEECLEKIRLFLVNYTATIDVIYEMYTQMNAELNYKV
UniProt Q06546: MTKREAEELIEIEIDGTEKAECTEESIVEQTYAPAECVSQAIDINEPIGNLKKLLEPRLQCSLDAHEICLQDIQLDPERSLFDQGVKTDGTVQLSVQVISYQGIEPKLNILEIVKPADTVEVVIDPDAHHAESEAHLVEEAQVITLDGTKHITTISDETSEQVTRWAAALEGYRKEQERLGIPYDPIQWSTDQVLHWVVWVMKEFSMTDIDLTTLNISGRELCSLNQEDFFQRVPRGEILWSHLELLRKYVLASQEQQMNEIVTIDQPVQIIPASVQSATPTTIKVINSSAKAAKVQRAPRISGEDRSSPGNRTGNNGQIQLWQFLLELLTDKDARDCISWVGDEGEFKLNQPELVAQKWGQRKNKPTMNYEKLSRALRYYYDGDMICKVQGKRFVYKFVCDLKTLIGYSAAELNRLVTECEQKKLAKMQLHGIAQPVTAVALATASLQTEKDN
UniProt P04406: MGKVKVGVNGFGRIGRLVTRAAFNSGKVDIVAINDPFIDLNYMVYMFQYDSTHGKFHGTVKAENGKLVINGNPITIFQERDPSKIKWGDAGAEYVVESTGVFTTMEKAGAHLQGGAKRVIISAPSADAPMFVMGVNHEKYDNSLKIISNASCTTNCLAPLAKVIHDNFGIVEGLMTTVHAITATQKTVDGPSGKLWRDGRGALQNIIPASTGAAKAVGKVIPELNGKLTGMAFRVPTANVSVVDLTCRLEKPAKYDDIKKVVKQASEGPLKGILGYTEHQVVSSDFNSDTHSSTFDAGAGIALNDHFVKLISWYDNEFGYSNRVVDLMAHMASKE

Compound: Nc1nc2c(ncn2[C@@H]2O[C@H](COP(=O)(O)OP(=O)(O)OP(=O)(O)O)[C@@H](O)[C@H]2O)c(=O)[nH]1
Experiment: dose-dependent thermal stabilisation call (2D-TPP, DLPTP, 10% FDR) (binary (1 = stabilised)); higher = stabilised by the compound
Conditions: system: Jurkat gel-filtered lysate; concentration range 1-500 µM
Method: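 2D thermal proteome profiling in gel-filtered Jurkat E6.1 lysate (2 mg/ml) treated with NaGTP (0, 1, 10, 100, 500 uM) for 10 min at room temperature, then heated 3 min at one of 12 temperatures (42-63.9 C). Soluble protein was quantified by TMT10 MS. The value is the DLPTP call of the paper: dose-dependent thermal stabilisation over all temperatures at 10% FDR (F-test of a dose-response against a flat model); one experiment, one call per tested protein.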

| Target | dose-dependent thermal stabilisation call |
| --- | --- |
| HMBOX1 (UniProt Q6NT76) | inactive: 0 |
| HCLS1 (UniProt P14317) | inactive: 0 |
| GEN1 (UniProt Q17RS7) | inactive: 0 |
| HMGB2 (UniProt P26583) | inactive: 0 |
| HEXDC (UniProt Q8WVB3) | inactive: 0 |
| HIP1R (UniProt O75146) | inactive: 0 |
| GNPDA2 (UniProt Q8TDQ7) | inactive: 0 |
| GSTZ1 (UniProt O43708) | active: 1 |
| GSN (UniProt P06396) | inactive: 0 |
| HEXIM1 (UniProt O94992) | inactive: 0 |
| GORAB (UniProt Q5T7V8) | inactive: 0 |
| HLCS (UniProt P50747) | inactive: 0 |
| HAGH (UniProt Q16775) | inactive: 0 |
| GNPDA1 (UniProt P46926) | inactive: 0 |
| GIMAP4 (UniProt Q9NUV9) | active: 1 |
| HNRNPA0 (UniProt Q13151) | inactive: 0 |
| GGPS1 (UniProt O95749) | inactive: 0 |
| GPD1L (UniProt Q8N335) | active: 1 |
| GSS (UniProt P48637) | active: 1 |
| GET4 (UniProt Q7L5D6) | inactive: 0 |

Single values from above:
GORAB (UniProt Q5T7V8) | dose-dependent thermal stabilisation call: inactive: 0
GGPS1 (UniProt O95749) | dose-dependent thermal stabilisation call: inactive: 0

Carrying on.

| Target | dose-dependent thermal stabilisation call |
| --- | --- |
| G3BP2 (UniProt Q9UN86) | inactive: 0 |
| GPKOW (UniProt Q92917) | active: 1 |
| GMFB (UniProt P60983) | inactive: 0 |
| GTF2I (UniProt P78347) | active: 1 |
| GMDS (UniProt O60547) | active: 1 |
| GSTP1 (UniProt P09211) | inactive: 0 |
| GTF2E2 (UniProt P29084) | inactive: 0 |
| HNRNPH3 (UniProt P31942) | inactive: 0 |
| GEMIN6 (UniProt Q8WXD5) | inactive: 0 |
| HIST1H1C (UniProt P16403) | inactive: 0 |
| GDI1 (UniProt P31150) | active: 1 |
| HAT1 (UniProt O14929) | active: 1 |
| HDAC6 (UniProt Q9UBN7) | inactive: 0 |
| GLCCI1 (UniProt Q86VQ1) | inactive: 0 |
| GGA1 (UniProt Q9UJY5) | inactive: 0 |
| GLTP (UniProt Q9NZD2) | inactive: 0 |
| GRB2 (UniProt P62993) | inactive: 0 |
| GABPA (UniProt Q06546) | inactive: 0 |
| GAPDH (UniProt P04406) | inactive: 0 |
| GATD1 (UniProt Q8NB37) | inactive: 0 |
